Results as given in PubChem BioAssay AID2417 (National Center for Advancing Translational Sciences (NCATS), 2010).
In all, about 140,000 compounds went through this assay and about 4,300 (3.1%) were called active. This list was built around the results that the source calls inconclusive (neither active nor inactive); the mix of calls is not that of the screen.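 Rule for the calls: active = readout at or below -70, meaning at least 70% loss of cells showing the perinucleolar compartment, a nuclear body marking cancer cells; inconclusive = readout between -30 and a set limit; inactive = the rest.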

Experiment: High Content Assay for Compounds that inhibit the Assembly of the Perinucleolar Compartment;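 note: plate controls were DMSO wells for no effect and camptothecin positive control wells for full effect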
Conditions: PC3M PTB-GFP, PNC prevalence imaging, 16 h; at 10 µM; hits give low values
Method in brief: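 PC3M cells stably expressing PTB-GFP, 750–1000 cells/well, treated 16 h at 37 °C with compound (23 nl of library stock), in duplicate. After paraformaldehyde fixation and Hoechst stain, imaged at 20x; PNC prevalence scored by image analysis.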

Row | Compound | activity change (PNC), negative = inhibition
1 | CC(C)Cc1nc(NCCN2CCOCC2)c(C#N)c2c1COC(C)(C)C2 | inconclusive: -78.2%
2 | COCCn1c(C)cc(C2=NNC(=Nc3ccccc3F)SC2)c1C | inactive: 14.4%
3 | CC(=O)N1N=C(c2ccc(C(C)(C)C)cc2)OC1(C)C | inconclusive: -72.2%
4 | Cc1cc(/C=C2/NC(=O)N(Cc3ccccc3F)C2=O)c(C)n1C(C)C | inconclusive: -47.8%
5 | CCn1ncc(C2=NOC(C(=O)N3CCN(c4ccccc4)CC3)C2)c1C (stereo unspecified) | inconclusive: -40.4%
6 | COc1ccccc1N1CCN(C(=O)c2ccc([N+](=O)[O-])s2)CC1 | inactive: -4.2%
7 | CS/C(=N\S(=O)(=O)c1ccc(Cl)cc1)c1ccccc1 | inactive: -0.311%
8 | Cn1c(=O)c2c(nc(SCC(=O)N3CCc4ccccc43)n2Cc2ccccc2)n(C)c1=O | inconclusive: -43.4%
9 | O=C(O)CNC(=O)c1ccc(OC(F)F)cc1 | inconclusive: -44.7%
10 | Nc1nc(SC2c3cccc4cccc(c34)C2NS(=O)(=O)c2ccccc2)n[nH]1 (stereo unspecified) | inactive: 45.8%
11 | CC1CN(C(=O)c2cccc(COc3ccc(Br)cc3)c2)CC(C)O1 (stereo unspecified) | inconclusive: -41.5%
12 | CC(C)(C)n1ncc2c(=O)n(CC(=O)Nc3ccc(Cl)cc3)cnc21 | inconclusive: -35%
13 | Cc1ccc(NCc2nnc(SCC(=O)NCc3ccco3)n2CC2CCCO2)c(C)c1 (stereo unspecified) | inactive: 31.2%
14 | CC(/C=N/NC(=O)c1cc(-c2ccccc2)nc2ccccc12)=C\c1ccco1 | inconclusive: -68%
15 | Nc1oc2ccccc2c(=O)c1C=O | inconclusive: -53.6%
16 | COc1ccc(C(=O)Nc2cc(-c3nn4c(C)nnc4s3)ccc2C)cc1 | inactive: -9.27%
17 | O=C1CC(N2CCOCC2)C(=O)N1c1cccc(Cl)c1 (stereo unspecified) | inactive: -1.66%
18 | Cc1ccc(C(=O)NC(=S)Nc2ccccc2C(F)(F)F)cc1 | inconclusive: -31.7%
19 | Cc1c(C(=O)OC2CCCC2C)[nH]c2c1C(=O)CCC2 (stereo unspecified) | inactive: 21.6%
20 | C=CCn1c(SCc2c(C)noc2C)nc2ccccc2c1=O | inconclusive: -62%
21 | O=C(CSc1nnc(CNC(=O)C23CC4CC(CC(C4)C2)C3)n1-c1ccc(F)cc1)Nc1ccc(F)cc1 | inactive: -3.17%
22 | O=C(Nc1ccc2oc(=O)ccc2c1)c1cc2ccccc2o1 | active: -119%
23 | CCOC(=O)C(C(=O)OCC)C1N=C(N)N=C2Oc3ccccc3N21 (stereo unspecified) | inconclusive: -57.6%

Part of the list above in a different format:
Row	Compound	activity change (PNC), negative = inhibition
3	CC(=O)N1N=C(c2ccc(C(C)(C)C)cc2)OC1(C)C	inconclusive: -72.2%
7	CS/C(=N\S(=O)(=O)c1ccc(Cl)cc1)c1ccccc1	inactive: -0.311%
10	Nc1nc(SC2c3cccc4cccc(c34)C2NS(=O)(=O)c2ccccc2)n[nH]1 (stereo unspecified)	inactive: 45.8%
17	O=C1CC(N2CCOCC2)C(=O)N1c1cccc(Cl)c1 (stereo unspecified)	inactive: -1.66%
22	O=C(Nc1ccc2oc(=O)ccc2c1)c1cc2ccccc2o1	active: -119%

The list continues:

Row | Compound | activity change (PNC), negative = inhibition
24 | Cc1ccc(-n2c(=S)[nH]c3c(oc4ccccc43)c2=O)cc1 | inactive: 23.2%
25 | COc1ccc(S(=O)(=O)CCC(=O)NCCc2ccc(S(N)(=O)=O)cc2)cc1 | inconclusive: -43.6%
26 | CCOC(=O)N1CCN(CC(=O)Nc2cccc(Br)c2)CC1 | inconclusive: -39.4%
27 | O=C(O)Cn1c(SCc2ccccc2)nc2ccccc21 | inconclusive: -34.3%
28 | O=C(Cc1c[nH]c2ccccc12)NNC(=O)c1ccccc1 | inconclusive: -67.2%
29 | O=S(=O)(NCCc1ccccc1)c1cccc(S(=O)(=O)N2CCOCC2)c1 | inactive: 14.5%
30 | Cc1ccc(C(C)C)c(OC(=O)/C=C/c2ccccc2)c1 | inactive: -3.64%
31 | COc1cc(O)c(NC(C)=O)c2nonc12 | active: -87.8%
32 | CCOC(=O)/C(C(N)=NCc1ccco1)=C(/O)c1ccccc1 | inconclusive: -48.2%
33 | Cc1cnn(-c2nc(-c3cccs3)cc(C(F)(F)F)n2)c1 | inconclusive: -42.9%
34 | CCOC(=O)N1CCN(C(=O)CSc2nnc(CNC(=O)c3c(F)cccc3Cl)o2)CC1 | inconclusive: -36%
35 | c1ccc(Cn2c(CN3CCCC3)nc3ccccc32)cc1 | inconclusive: -56.1%
36 | Cc1ccc(NC(=S)N(CCN2CCCCC2)Cc2ccco2)cc1 | inconclusive: -44.9%
37 | CCCn1c(=O)c2ccccc2n2c(SCC(=O)c3ccccc3)nnc12 | inconclusive: -44.6%
38 | O=C(CSc1nc2c(sc3ccccc32)c(=O)n1CCCN1CCCC1)NCC1CCCO1 (stereo unspecified) | inconclusive: -44.5%
39 | CC(C)CCn1c(O)c(N=NC(=O)Cn2ccc(C(F)(F)F)n2)c2ccccc21 | inactive: 13.2%
40 | O=c1c2ccccc2[nH]c(=S)n1-c1cccc(S(=O)(=O)N2CCCC2)c1 | inactive: -22.5%
41 | COc1ccc(C(=O)NCc2cccnc2)cc1 | inconclusive: -32.2%
42 | CC1CCCC(C)N1C(=O)CSc1nc2ncnc(N)c2[nH]1 (stereo unspecified) | inconclusive: -48.8%
43 | Cc1ccc(S(=O)(=O)c2c(N)n(C)c3nc4ccccc4nc23)cc1 | inconclusive: -36.6%
44 | Cc1ccc(C)c(NC(=S)NNC(=O)c2csc(C(C)C)c2)c1 | active: -119%
45 | Nn1c(-c2cccc(Br)c2)n[nH]c1=S | inactive: -6.83%
46 | O=c1cc(-c2ccccc2)c2ccc(O)c(CN3CCCCC3)c2o1 | inconclusive: -37.1%

Taken from above.
activity change (PNC), negative = inhibition with Cc1ccc(C(C)C)c(OC(=O)/C=C/c2ccccc2)c1 is entered as inactive: -3.64%
activity change (PNC), negative = inhibition with CC(=O)N1N=C(c2ccc(C(C)(C)C)cc2)OC1(C)C is entered as inconclusive: -72.2%

Later entries.

Row | Compound | activity change (PNC), negative = inhibition
47 | Cc1n[nH]c(=O)nc1NC1CCCCC1 | inconclusive: -72.9%
48 | c1ccc(COc2ccc(Nc3ncnc4nc[nH]c34)cc2)cc1 | inactive: -10.5%
49 | COc1cc(/C=C2\C(=O)N(c3ccccc3)N=C2C)ccc1Oc1ccc([N+](=O)[O-])cc1[N+](=O)[O-] | inactive: 5.09%
50 | CCN1CCN(c2ncnc3c2oc2nc(C(C)C)c4c(c23)CCC4)CC1 | inconclusive: -48.4%
51 | CCOc1ccccc1CN1CCN(S(=O)(=O)CC)CC1 | inconclusive: -32.2%
52 | CCC1CCc2c(sc(NC(=O)C3CC=CCC3C(=O)O)c2C#N)C1 (stereo unspecified) | inactive: 8.03%
53 | Cn1c(=O)c2c(nc(CN3CCN(C(=O)c4ccco4)CC3)n2CCc2ccccc2)n(C)c1=O | inconclusive: -53.7%
54 | CCN(CC)C(=O)CSc1nnc(CNc2ccc(F)cc2)n1-c1ccccc1 | inconclusive: -35.8%
55 | Cc1ccc(O)c(-c2cc(-c3ccccc3[N+](=O)[O-])[nH]n2)c1 | inactive: 4.07%
56 | Cc1ccc(SC(C)c2nc(-c3ccncc3)no2)cc1 (stereo unspecified) | inconclusive: -60.5%
57 | Cc1ccc(C)c(NC(=O)C(Sc2nc3ccccc3c(=O)n2CC(C)C)c2ccccc2)c1 (stereo unspecified) | inconclusive: -37.6%
58 | COCCSc1ccccc1C(=O)NCC1CCCO1 (stereo unspecified) | inactive: -10.3%
59 | CCOc1ccc(OCC)c(NC(=O)CCCN2C(=O)c3cccnc3C2=O)c1 | inconclusive: -35.5%
60 | Cc1ccc(S(=O)(=O)N/N=C/c2c(F)cccc2Cl)cc1 | inactive: -2.12%
61 | Cc1ccc(C(C2=C(O)CC(C)(C)CC2=O)C2C(=O)CC(C)(C)CC2=O)o1 (stereo unspecified) | inconclusive: -50.2%
62 | CCOC(=O)C1=C(C)Nc2ncnn2C1c1cccnc1 (stereo unspecified) | inconclusive: -37.3%
63 | Cc1c(NC2=C(Cl)C(=O)N(c3ccccc3Cl)C2=O)c(=O)n(-c2ccccc2)n1C | inactive: 16.6%
64 | C=CCn1c(SCC(N)=O)nc(C)cc1=O | inconclusive: -37.9%
65 | COc1cc(OC)cc(C(=O)N(CCCN2C(=O)c3cccc4cccc(c34)C2=O)c2cccc(OC)c2)c1 | inconclusive: -77%
66 | O=C(CCSCCC(=O)NCc1ccccc1)NCc1ccccc1 | inconclusive: -45.9%
67 | CCOCc1cn(CC(=O)c2ccc([N+](=O)[O-])cc2)c(C)nc1=N | inactive: 30.4%
68 | CCOC(=O)Oc1ccc(C(=O)OCCCN(C)C)cc1OC | inconclusive: -51.4%
69 | COC(=O)CSc1nc2cc(Cl)ccc2c(=O)n1C1CCCC1 | inconclusive: -34.2%

Row | Compound | activity change (PNC), negative = inhibition
70 | Cc1nnc(N2C(=O)C(O)=C(C(=O)c3ccco3)C2c2ccc(C(C)C)cc2)s1 (stereo unspecified) | inconclusive: -74%
71 | CCNc1nc(OC)nc(Oc2ccc(=O)n(-c3ccccc3)n2)n1 | active: -93.8%
72 | CCn1c(SCC(=O)Nc2ccccc2F)nc2c(c1=O)SC(C)C2 (stereo unspecified) | active: -100%
73 | CC1=NN(/C(=N\c2nnc(C)s2)Nc2ccccc2)[C@H](c2ccc(C)cc2)S1 | inconclusive: -30.2%
74 | COc1ccccc1N1CCN(CC(O)COc2ccc3c(c2)CCC3)CC1 (stereo unspecified) | inconclusive: -48.9%
75 | Cc1ccc(S(=O)(=O)N2CCCCC2)cc1NC(=O)COC(=O)Cc1cccc(C(F)(F)F)c1 | inconclusive: -33.1%
76 | O=C(c1ccccc1CCc1ccccc1)N1CCN(c2ccccn2)CC1 | active: -83.7%
77 | Cc1ccc(S(=O)(=O)Nc2ccccc2C(=O)Nc2ccc(S(=O)(=O)Nc3nccc(C)n3)cc2)cc1 | inconclusive: -75.3%
78 | CC1CC(OCC(O)CN2CCOCC2)CC(C)(C)C1 (stereo unspecified) | inconclusive: -46.5%
79 | O=C(CNC(=S)NC(=O)c1ccccc1)c1ccccc1 | inconclusive: -44.8%
80 | S=C(c1ccc2c(c1)OCO2)N1CCCCC1 | inactive: -11.8%
81 | CSc1nc2sc3c(c2c(=O)n1C1CCCCC1)CCN(C)C3 | inactive: -9.75%
82 | Nc1c(C(=O)c2ccc(Br)cc2)oc2ccccc12 | inconclusive: -32.2%
83 | Cn1cccc1Cc1nnc(SCC(=O)Nc2ccccc2)n1-c1ccc(F)cc1 | inactive: -1.71%
84 | Nc1nc(SCc2ccc(Cl)cc2Cl)nc2nc3c(cc12)CCCC3 | active: -82.6%
85 | CSc1cc(C)n(-c2ccccc2)c(=S)c1C(C)=O | inconclusive: -30%
86 | CC(=O)NCC(=O)NC(C(=O)Nc1ccc2c(c1)OCCO2)c1ccccc1 (stereo unspecified) | inconclusive: -58.1%
87 | COc1cc(CNCCO)cc(Br)c1OCc1ccccc1Cl | inconclusive: -38.9%
88 | CC(C)(C)n1nc(-c2ccc(F)cc2)c2c(N)ncnc21 | inconclusive: -41.4%
89 | Cc1cc(/C=N/Nc2ccc([N+](=O)[O-])cn2)c(C)n1-c1ccccc1 | inactive: -1.11%
90 | CN(C)CCOc1cccc(Cl)c1 | inactive: -11.6%
91 | COC(=O)/C(=C/c1cn(C)c2ccccc12)[N+](=O)[O-] | inconclusive: -32.3%
